Some of the results follow. Many values rest on one well or one pass, so single values are uncertain.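 Cells were imaged in 1,536-well plates, and nuclei stained with an antibody against cleaved PARP were counted against all DNA-stained nuclei to give the apoptosis fraction. Screening doses were chosen to leave most cells alive, and resting and induced cleaved-PARP levels differ strongly between cell lines.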
What follows are compounds tested on SkMel28 (assay: cleaved PARP positive nuclei fraction relative to DMSO control; melanoma cells; higher = more apoptosis). Conditions: library dose: low library concentration; 72 h.

Point of comparison: `CO[C@H]1C[C@@H]2CC[C@@H](C)[C@@](O)(O2)C(=O)C(=O)N2CCCC[C@H]2C(=O)O[C@H]([C@H](C)C[C@@H]2CC[C@@H](OCCO)[C@H](OC)C2)CC(=O)[C@H](C)/C=C(\C)[C@@H](O)[C@@H](OC)C(=O)[C@H](C)C[C@H](C)/C=C/C=C/C=C/1C` [everolimus] + CN(NC(=O)CC(=O)NN(C)C(=S)c1ccccc1)C(=S)c1ccccc1 [STA4783] (first compound 0.02 µM, partner dose 0.006 µM), “cleaved PARP positive nuclei fraction” value 287%. Against it:
- CO[C@H]1C[C@@H]2CC[C@@H](C)[C@@](O)(O2)C(=O)C(=O)N2CCCC[C@H]2C(=O)O[C@H]([C@H](C)C[C@@H]2CC[C@@H](OCCO)[C@H](OC)C2)CC(=O)[C@H](C)/C=C(\C)[C@@H](O)[C@@H](OC)C(=O)[C@H](C)C[C@H](C)/C=C/C=C/C=C/1C [everolimus] + Cn1cc(/C=C2\C(=O)Nc3cccnc32)c2ccccc21 [GW441756] (first compound 0.02 µM, partner dose 0.4 µM) — higher, 293%
- CO[C@H]1C[C@@H]2CC[C@@H](C)[C@@](O)(O2)C(=O)C(=O)N2CCCC[C@H]2C(=O)O[C@H]([C@H](C)C[C@@H]2CC[C@@H](OCCO)[C@H](OC)C2)CC(=O)[C@H](C)/C=C(\C)[C@@H](O)[C@@H](OC)C(=O)[C@H](C)C[C@H](C)/C=C/C=C/C=C/1C [everolimus] + Cn1c(Nc2ccc(C(F)(F)F)cc2)nc2cc(Oc3ccnc(-c4ncc(C(F)(F)F)[nH]4)c3)ccc21 [CHIR265] (first compound 0.02 µM, partner dose 0.08 µM) — lower, 105%
- CO[C@H]1C[C@@H]2CC[C@@H](C)[C@@](O)(O2)C(=O)C(=O)N2CCCC[C@H]2C(=O)O[C@H]([C@H](C)C[C@@H]2CC[C@@H](OCCO)[C@H](OC)C2)CC(=O)[C@H](C)/C=C(\C)[C@@H](O)[C@@H](OC)C(=O)[C@H](C)C[C@H](C)/C=C/C=C/C=C/1C [everolimus] + COc1cc2ncnc(Nc3ccc(Oc4ccccc4)cc3)c2cc1OC [SrcI1] (first compound 0.02 µM, partner dose 2 µM) — higher, 362%
- CO[C@H]1C[C@@H]2CC[C@@H](C)[C@@](O)(O2)C(=O)C(=O)N2CCCC[C@H]2C(=O)O[C@H]([C@H](C)C[C@@H]2CC[C@@H](OCCO)[C@H](OC)C2)CC(=O)[C@H](C)/C=C(\C)[C@@H](O)[C@@H](OC)C(=O)[C@H](C)C[C@H](C)/C=C/C=C/C=C/1C [everolimus] + CCCCCCCCCCCC1=C(O)C(=O)C=C(O)C1=O [Embelin] (first compound 0.02 µM, partner dose 1.2 µM) — higher, 493%
- CO[C@H]1C[C@@H]2CC[C@@H](C)[C@@](O)(O2)C(=O)C(=O)N2CCCC[C@H]2C(=O)O[C@H]([C@H](C)C[C@@H]2CC[C@@H](OCCO)[C@H](OC)C2)CC(=O)[C@H](C)/C=C(\C)[C@@H](O)[C@@H](OC)C(=O)[C@H](C)C[C@H](C)/C=C/C=C/C=C/1C [everolimus] + COC(=O)c1sccc1S(=O)(=O)Nc1ccc(Nc2ccccc2)cc1OC [GSK0660] (first compound 0.02 µM, partner dose 1 µM) — lower, 282%
- CO[C@H]1C[C@@H]2CC[C@@H](C)[C@@](O)(O2)C(=O)C(=O)N2CCCC[C@H]2C(=O)O[C@H]([C@H](C)C[C@@H]2CC[C@@H](OCCO)[C@H](OC)C2)CC(=O)[C@H](C)/C=C(\C)[C@@H](O)[C@@H](OC)C(=O)[C@H](C)C[C@H](C)/C=C/C=C/C=C/1C [everolimus] + C[C@@H]1CCN(C(=O)CC#N)C[C@@H]1N(C)c1ncnc2[nH]ccc12 [CP690550] (first compound 0.02 µM, partner dose 1 µM) — lower, 174%
- CO[C@H]1C[C@@H]2CC[C@@H](C)[C@@](O)(O2)C(=O)C(=O)N2CCCC[C@H]2C(=O)O[C@H]([C@H](C)C[C@@H]2CC[C@@H](OCCO)[C@H](OC)C2)CC(=O)[C@H](C)/C=C(\C)[C@@H](O)[C@@H](OC)C(=O)[C@H](C)C[C@H](C)/C=C/C=C/C=C/1C [everolimus] + Oc1cc(-c2nc(-c3ccccc3)[nH]c2-c2ccncc2)ccc1Cl [L779450] (first compound 0.02 µM, partner dose 0.2 µM) — higher, 720%

From the supplement of paper PMC4604168 (melanoma cell lines)
